Laboratory results as given in PubChem BioAssay AID2685 (National Center for Advancing Translational Sciences (NCATS), 2010).
This is one part of the list. Further columns of the screen follow, without active or inactive calls. Most of these compounds were active or inconclusive in the main read-out, so they are no random draw. Potencies come from curve fits of mixed quality, noted in brackets.

Assay: qHTS Assay for Lipid Storage Modulators in Drosophila S3 Cells;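 as to cell number change: cells counted by Cell Tracker Red CMTPX staining in the red channel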
Settings: BODIPY lipid droplet fluorescence, 18-24 h; for cell number change: measured here: cell count max response, cells fed with added oleic acid
How it was run: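 Drosophila S3 cells got compounds at several concentrations plus oleic acid (400 uM solution). Laser-scanning cytometry with 488 nm excitation read lipid droplets at 500-530 nm and cells at 575-640 nm. Percent activity was relative to 20 uM Triacsin C.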

[1] = measured here: cell number channel AC50, cells fed with added oleic acid
[2] = measured here: lipid fluorescence (Fed channel) AC50, cells fed with added oleic acid

Q: With `NC(=O)CN(C/C=C/c1ccccc1)C/C=C/c1ccccc1` as the compound, how does the cell number change read?
A: -1.59%

Q: And the AC50 [1]?
A: 0.0651 µM [rising, full curve, poor fit]

Q: With `CCS(=O)(=O)Nc1cccc(C2=NN(S(C)(=O)=O)C(c3cccs3)C2)c1` (configuration not stated) as the compound, how does the cell number change read?
A: -8.26%

Q: What about the AC50 [2] of the same compound?
A: 20.6 µM [rising, single point]

Q: For `O=C(Oc1ccc2c(=O)c(Oc3ccc4ccccc4c3)coc2c1)c1cncc(Br)c1`, which cell number change is on record?
A: -59.8%

Q: What about the AC50 [1] of the same compound?
A: 2.91 µM [falling, full curve]

Q: For `Cc1cc(C)cc(NC(=S)NCCc2c[nH]c3ccccc23)c1`, which cell number change is on record?
A: 14.6%

Q: And the AC50 [2]?
A: 5.8 µM [rising, partial curve]

Q: With `Cc1ccccc1NC(=O)CCC(=O)N/N=C/c1cccnc1` as the compound, how does the cell number change read?
A: 14.7%

Q: Which cell number change does the source give for `O=C(COC(=O)c1ccc(S(=O)(=O)N2CCCC2)cc1)Nc1cccc(Cl)c1` here?
A: -11.2%

Q: And the AC50 [2]?
A: 0.461 µM [falling, single point]

Q: For `COc1ccc(CN2CCN(C(=O)CCC(=O)c3ccc(C)s3)CC2)cc1OC`, which cell number change is on record?
A: 7.1%

Q: What about the AC50 [2] of the same compound?
A: 6.51 µM [rising, partial curve, poor fit]

Q: For `Cc1cc(-c2nc(C)c(C(=O)NNS(=O)(=O)c3ccc(Cl)cc3Cl)s2)no1`, which cell number change is on record?
A: 15.3%

Q: And the AC50 [1]?
A: 0.58 µM [falling, full curve]

Q: What does the source list for `COc1ccc([C@@H]2[C@@H]3C(=O)N(C(C)(C)C)C(=O)[C@@H]3[C@]3(Cc4ccccc4)C(=O)N(c4ccc(C)cc4)C(=O)N23)cc1`?
A: cell number change: -0.33%; AC50 [1]: 6.51 µM [falling, single point]; AC50 [2]: 6.51 µM [falling, single point]

Q: Which AC50 [2] does the source give for `Cn1nc(C(=O)N2CCN(c3ccc(F)cc3)CC2)c2c1-c1ccccc1S(=O)(=O)C2` here?
A: 0.116 µM [rising, single point]

Q: With `CC1CC(C)CN(C(=O)c2ccc3nc[nH]c3c2)C1` (configuration not stated) as the compound, how does the cell number change read?
A: 31.9%

Q: What about the AC50 [1] of the same compound?
A: 10.3 µM [rising, partial curve, poor fit]

Q: What does the source list for `CCCn1c(N)c(C(=O)CSc2nnc(-c3ccoc3C)n2C)c(=O)n(C)c1=O`?
A: cell number change: -18.7%; AC50 [2]: 0.58 µM [falling, partial curve, poor fit]

Q: For `O=C(CCc1c[nH]c2ccccc12)NCc1cccc(Cl)c1`, which cell number change is on record?
A: -1.68%

Q: For `Clc1cccc(-c2ccc3ncnc(NCc4cccnc4)c3c2)c1`, which cell number change is on record?
A: -58.3%

Q: What about the AC50 [1] of the same compound?
A: 13 µM [falling, partial curve]

Q: What about the AC50 [2] of the same compound?
A: 13 µM [falling, partial curve, poor fit]

Q: For `COc1ccc(C2CC(=O)c3c(ccc4ccccc34)N2)cc1OC` (configuration not stated), which cell number change is on record?
A: -13.7%

Q: And the AC50 [2]?
A: 6.51 µM [rising, single point]

Q: What does the source list for `CC(=O)C1=C(C)NC(SCC(=O)Nc2nccs2)=C(C#N)C1c1ccccc1Cl` (configuration not stated)?
A: cell number change: 4.6%; AC50 [2]: 0.517 µM [rising, partial curve, poor fit]

Q: With `Cc1ccc(NC(=O)CN(C)C(=O)c2ccccc2Sc2ccccc2C#N)cc1` as the compound, how does the AC50 [2] read?
A: 6.51 µM [falling, single point]

Q: Which cell number change does the source give for `Cc1cc(Nc2cccc([N+](=O)[O-])c2)c2ccccc2n1` here?
A: -17.9%

Q: And the AC50 [2]?
A: 1.16 µM [falling, full curve]

Q: For `Cc1cc(C)n2nc(C(=O)OCC(=O)c3cc(C)n(CC4CCCO4)c3C)nc2n1` (configuration not stated), which cell number change is on record?
A: 28.1%

Q: Which AC50 [1] does the source give for `Cc1ccccc1C(=O)N1CCC(C(=O)Nc2ccc(S(=O)(=O)N3CCCC3)cc2)CC1` here?
A: 4.11 µM [falling, single point]

Q: And the AC50 [2]?
A: 6.51 µM [falling, single point]

Q: Which cell number change does the source give for `CCN(CC(=O)Nc1c(F)cccc1F)C(=O)c1ccc2c(=O)n3c(nc2c1)CCC3` here?
A: -25%

Q: What about the AC50 [1] of the same compound?
A: 3.66 µM [falling, full curve, poor fit]

Q: What about the AC50 [2] of the same compound?
A: 6.51 µM [rising, single point]

Q: What does the source list for `COc1cccc(C(=O)OCC(=O)c2ccc(Br)s2)c1OC`?
A: cell number change: -11%; AC50 [2]: 6.51 µM [rising, single point]

Q: With `Cc1cc(NC(=O)CSc2nc(=O)cc(N)n2-c2ccc(Cl)cc2)no1` as the compound, how does the cell number change read?
A: 11.8%

Q: And the AC50 [1]?
A: 1.3 µM [falling, partial curve, poor fit]

Q: Which cell number change does the source give for `Cc1ccc(CN(C(=O)c2ccccc2C)C2CCS(=O)(=O)C2)o1` (configuration not stated) here?
A: -20.7%

Q: Which results are given for `Cc1cc(Cl)ccc1OCC(O)CN1C(C)CCCC1C` (configuration not stated)?
A: cell number change: -35.4%; AC50 [1]: 0.164 µM [falling, full curve]; AC50 [2]: 2.06 µM [falling, partial curve]

Q: With `CCc1cc(=O)oc2cc(C)cc(OCC(=O)N3CCC(C(=O)NC(C)C)(c4ccccc4)CC3)c12` as the compound, how does the cell number change read?
A: -40.6%

Q: And the AC50 [1]?
A: 4.11 µM [falling, full curve]

Q: And the AC50 [2]?
A: 14.6 µM [falling, partial curve]

Q: Which results are given for `c1nnnn1C12CC3CC(CC(C3)C1)C2`?
A: cell number change: 9.37%; AC50 [2]: 18.4 µM [falling, single point]

Q: For `CC(=O)NC(=O)c1ccc(-c2ccc(Cl)cc2)o1`, which cell number change is on record?
A: -27.1%

Q: What about the AC50 [2] of the same compound?
A: 16.4 µM [falling, partial curve]

Q: With `CC(=O)NC(C)c1cc(Cl)c2cccnc2c1O` (configuration not stated) as the compound, how does the cell number change read?
A: 16.9%

Q: What about the AC50 [2] of the same compound?
A: 1.16 µM [rising, single point]
